Paper PMC11036802
These are yes or no findings as the source states them, for the method shown. Binding seen in cells or lysates may run through a third protein. Here binding means that the protein was enriched with, or labelled near, the bait; the list need not be complete. Sequences can lack the tags named with a protein.

By UniProt entry, the sequences of proteins in these tests, tags left out. Where a name states a change or a piece, a line headed by the entry shows the natural chain unless it says otherwise.
UniProt Q8ILR9: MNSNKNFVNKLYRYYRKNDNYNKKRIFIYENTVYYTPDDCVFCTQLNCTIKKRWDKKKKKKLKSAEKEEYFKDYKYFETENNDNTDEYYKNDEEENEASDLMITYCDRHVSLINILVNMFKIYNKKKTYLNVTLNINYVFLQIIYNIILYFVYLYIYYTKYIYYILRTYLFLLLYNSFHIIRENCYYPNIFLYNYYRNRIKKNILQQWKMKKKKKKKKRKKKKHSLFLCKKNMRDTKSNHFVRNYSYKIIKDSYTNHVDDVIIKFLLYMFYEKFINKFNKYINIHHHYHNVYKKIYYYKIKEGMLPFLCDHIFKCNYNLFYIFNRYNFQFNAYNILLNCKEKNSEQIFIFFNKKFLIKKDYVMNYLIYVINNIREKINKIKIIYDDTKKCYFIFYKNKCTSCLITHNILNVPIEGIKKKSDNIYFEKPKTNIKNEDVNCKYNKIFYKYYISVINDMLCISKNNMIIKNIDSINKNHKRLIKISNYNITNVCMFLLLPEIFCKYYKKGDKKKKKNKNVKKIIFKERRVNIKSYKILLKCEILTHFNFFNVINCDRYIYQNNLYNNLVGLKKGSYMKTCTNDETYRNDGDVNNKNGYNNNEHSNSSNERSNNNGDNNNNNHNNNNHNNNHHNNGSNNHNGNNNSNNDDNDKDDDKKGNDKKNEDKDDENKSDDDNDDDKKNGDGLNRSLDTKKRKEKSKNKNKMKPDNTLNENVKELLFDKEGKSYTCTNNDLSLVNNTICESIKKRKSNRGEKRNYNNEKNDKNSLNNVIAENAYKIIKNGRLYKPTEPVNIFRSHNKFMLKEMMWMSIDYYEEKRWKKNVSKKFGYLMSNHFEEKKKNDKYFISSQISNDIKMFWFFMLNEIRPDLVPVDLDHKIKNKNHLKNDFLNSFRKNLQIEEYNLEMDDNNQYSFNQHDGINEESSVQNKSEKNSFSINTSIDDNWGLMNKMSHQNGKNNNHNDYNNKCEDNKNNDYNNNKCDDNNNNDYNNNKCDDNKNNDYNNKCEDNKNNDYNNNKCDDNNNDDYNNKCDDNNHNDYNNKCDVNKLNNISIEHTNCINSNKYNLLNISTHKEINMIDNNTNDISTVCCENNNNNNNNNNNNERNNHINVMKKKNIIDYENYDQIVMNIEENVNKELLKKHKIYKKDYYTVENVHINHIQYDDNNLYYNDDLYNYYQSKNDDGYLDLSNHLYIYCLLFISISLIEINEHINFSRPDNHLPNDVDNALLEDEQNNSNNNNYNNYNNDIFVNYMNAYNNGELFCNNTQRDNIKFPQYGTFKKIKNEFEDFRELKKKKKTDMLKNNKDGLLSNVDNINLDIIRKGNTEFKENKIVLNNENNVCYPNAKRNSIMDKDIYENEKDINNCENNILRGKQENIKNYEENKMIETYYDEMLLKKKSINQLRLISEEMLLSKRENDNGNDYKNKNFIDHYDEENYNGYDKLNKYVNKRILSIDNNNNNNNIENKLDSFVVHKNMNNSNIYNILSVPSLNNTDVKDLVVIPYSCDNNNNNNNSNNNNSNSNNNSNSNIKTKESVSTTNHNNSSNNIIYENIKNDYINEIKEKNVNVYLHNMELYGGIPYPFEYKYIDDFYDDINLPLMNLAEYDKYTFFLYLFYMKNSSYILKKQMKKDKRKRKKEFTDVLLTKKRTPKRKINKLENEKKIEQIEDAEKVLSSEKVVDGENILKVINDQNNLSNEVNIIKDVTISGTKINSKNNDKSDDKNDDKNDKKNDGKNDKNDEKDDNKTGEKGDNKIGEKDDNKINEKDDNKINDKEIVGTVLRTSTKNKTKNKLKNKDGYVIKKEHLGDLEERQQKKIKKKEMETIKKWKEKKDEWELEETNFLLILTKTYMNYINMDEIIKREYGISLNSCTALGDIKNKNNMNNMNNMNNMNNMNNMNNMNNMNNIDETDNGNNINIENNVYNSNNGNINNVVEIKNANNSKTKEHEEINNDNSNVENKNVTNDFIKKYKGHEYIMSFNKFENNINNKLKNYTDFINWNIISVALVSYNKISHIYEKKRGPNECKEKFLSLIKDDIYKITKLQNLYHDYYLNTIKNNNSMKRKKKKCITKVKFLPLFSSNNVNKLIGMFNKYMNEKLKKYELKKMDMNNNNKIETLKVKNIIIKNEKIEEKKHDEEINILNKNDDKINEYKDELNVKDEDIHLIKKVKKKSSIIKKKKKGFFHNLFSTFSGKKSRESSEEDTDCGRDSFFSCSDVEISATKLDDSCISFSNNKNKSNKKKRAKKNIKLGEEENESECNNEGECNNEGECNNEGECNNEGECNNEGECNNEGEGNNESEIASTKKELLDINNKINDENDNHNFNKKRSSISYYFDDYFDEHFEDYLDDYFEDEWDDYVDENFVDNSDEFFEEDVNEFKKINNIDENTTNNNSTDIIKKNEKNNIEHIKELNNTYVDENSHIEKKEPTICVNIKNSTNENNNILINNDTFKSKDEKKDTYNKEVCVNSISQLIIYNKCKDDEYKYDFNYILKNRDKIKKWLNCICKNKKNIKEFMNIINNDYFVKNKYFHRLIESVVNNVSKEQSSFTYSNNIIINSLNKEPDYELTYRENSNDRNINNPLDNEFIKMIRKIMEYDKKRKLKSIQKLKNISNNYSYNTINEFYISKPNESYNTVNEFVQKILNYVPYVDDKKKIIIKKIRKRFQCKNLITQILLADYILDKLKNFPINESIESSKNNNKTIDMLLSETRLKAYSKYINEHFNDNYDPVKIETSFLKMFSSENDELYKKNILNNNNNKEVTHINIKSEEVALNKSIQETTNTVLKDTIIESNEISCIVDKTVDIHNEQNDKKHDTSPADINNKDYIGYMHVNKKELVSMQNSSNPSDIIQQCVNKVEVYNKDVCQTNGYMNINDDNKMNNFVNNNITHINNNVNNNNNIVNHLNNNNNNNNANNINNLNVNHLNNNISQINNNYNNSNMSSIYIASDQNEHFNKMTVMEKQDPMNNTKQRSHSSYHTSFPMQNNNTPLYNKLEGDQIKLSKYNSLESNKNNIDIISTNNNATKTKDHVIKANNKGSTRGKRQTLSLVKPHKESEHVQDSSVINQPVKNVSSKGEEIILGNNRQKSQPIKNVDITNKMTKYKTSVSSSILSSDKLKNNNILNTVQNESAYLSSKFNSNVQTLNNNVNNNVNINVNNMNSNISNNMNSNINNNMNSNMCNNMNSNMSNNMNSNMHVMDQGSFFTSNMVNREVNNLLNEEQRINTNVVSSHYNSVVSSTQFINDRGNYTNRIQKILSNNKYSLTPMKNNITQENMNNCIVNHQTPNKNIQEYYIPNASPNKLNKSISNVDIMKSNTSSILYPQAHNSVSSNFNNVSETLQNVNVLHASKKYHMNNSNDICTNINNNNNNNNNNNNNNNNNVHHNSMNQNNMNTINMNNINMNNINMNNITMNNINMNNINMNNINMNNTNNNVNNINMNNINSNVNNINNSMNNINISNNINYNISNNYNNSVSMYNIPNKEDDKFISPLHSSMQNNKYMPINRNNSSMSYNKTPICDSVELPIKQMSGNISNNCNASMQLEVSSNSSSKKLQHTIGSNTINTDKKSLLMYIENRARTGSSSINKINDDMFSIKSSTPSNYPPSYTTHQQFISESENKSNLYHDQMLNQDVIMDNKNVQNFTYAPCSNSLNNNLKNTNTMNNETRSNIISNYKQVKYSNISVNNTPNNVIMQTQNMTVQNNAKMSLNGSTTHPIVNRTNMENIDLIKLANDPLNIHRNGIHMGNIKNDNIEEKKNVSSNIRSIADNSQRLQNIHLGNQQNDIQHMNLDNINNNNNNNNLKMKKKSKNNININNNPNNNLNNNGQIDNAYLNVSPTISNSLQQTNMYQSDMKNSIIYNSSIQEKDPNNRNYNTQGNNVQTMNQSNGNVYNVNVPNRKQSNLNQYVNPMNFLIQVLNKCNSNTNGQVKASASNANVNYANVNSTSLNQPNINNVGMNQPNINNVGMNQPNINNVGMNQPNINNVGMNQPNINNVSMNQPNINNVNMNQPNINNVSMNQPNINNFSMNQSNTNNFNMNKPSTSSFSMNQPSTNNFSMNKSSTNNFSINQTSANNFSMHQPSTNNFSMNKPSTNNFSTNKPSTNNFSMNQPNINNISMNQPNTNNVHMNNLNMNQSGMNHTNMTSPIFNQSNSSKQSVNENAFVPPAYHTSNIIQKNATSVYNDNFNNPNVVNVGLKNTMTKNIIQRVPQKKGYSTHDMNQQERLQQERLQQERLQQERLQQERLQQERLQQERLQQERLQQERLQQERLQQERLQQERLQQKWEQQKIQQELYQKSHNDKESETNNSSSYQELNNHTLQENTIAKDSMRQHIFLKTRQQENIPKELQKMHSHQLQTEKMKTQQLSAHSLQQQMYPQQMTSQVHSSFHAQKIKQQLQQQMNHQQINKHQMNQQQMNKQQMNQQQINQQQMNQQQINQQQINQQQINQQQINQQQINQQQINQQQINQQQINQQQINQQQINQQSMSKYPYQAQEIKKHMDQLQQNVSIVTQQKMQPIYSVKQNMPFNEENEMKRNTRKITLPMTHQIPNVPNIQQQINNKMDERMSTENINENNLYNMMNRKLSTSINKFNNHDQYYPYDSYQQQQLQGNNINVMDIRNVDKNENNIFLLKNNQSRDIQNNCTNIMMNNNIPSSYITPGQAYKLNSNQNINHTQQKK
UniProt O96201: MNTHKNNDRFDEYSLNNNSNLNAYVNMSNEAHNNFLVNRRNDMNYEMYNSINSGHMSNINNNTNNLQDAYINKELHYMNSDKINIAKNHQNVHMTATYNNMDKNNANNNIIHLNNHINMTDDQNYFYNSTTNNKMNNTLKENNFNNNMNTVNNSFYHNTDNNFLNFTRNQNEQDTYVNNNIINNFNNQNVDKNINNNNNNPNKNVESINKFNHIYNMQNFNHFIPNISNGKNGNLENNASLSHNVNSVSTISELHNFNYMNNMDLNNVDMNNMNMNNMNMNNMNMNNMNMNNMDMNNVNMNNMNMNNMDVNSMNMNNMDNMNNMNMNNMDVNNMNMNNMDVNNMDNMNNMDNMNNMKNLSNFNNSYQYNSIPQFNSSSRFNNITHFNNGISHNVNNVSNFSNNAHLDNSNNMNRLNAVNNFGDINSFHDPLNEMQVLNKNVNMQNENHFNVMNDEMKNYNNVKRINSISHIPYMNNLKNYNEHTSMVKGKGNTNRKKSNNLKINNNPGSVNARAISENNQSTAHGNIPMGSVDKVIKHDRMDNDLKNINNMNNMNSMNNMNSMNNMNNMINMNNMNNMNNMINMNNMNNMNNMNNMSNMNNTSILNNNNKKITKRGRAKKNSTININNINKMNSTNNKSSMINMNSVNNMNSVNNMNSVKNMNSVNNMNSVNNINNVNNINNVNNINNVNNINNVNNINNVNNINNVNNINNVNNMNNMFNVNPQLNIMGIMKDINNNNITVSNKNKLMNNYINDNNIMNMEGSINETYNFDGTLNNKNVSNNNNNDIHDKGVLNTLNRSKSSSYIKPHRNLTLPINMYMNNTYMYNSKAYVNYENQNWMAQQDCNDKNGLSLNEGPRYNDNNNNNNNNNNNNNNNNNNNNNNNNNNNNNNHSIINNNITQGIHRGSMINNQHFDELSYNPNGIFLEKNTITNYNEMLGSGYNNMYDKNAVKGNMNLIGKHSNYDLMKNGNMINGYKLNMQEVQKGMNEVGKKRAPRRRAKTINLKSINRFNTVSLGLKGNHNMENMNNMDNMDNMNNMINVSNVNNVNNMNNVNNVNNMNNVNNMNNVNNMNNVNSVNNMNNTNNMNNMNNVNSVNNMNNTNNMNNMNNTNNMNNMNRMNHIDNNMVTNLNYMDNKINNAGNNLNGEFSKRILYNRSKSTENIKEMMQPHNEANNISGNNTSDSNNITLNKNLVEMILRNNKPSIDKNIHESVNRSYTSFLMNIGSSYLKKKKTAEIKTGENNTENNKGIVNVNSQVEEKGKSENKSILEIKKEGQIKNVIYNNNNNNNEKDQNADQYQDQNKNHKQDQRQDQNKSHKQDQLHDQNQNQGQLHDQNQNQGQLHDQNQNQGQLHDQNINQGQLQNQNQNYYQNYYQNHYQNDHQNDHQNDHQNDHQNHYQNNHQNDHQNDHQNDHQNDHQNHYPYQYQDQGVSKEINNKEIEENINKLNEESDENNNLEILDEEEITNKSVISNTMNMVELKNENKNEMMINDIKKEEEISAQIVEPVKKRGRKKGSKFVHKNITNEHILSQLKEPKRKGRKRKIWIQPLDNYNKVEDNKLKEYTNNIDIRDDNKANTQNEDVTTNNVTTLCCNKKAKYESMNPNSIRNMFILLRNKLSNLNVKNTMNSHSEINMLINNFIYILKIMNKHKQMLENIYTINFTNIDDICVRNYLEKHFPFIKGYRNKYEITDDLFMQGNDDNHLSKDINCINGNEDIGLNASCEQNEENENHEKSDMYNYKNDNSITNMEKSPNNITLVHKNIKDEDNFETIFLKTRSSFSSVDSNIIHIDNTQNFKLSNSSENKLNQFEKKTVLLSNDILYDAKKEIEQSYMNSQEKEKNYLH

Tests used:
[1] = target: T1, PfMYST::PTP (endogenous PfMYST with a C-terminal PTP tag) (P. falciparum (endogenous in 3D7 parasites)) (UniProt Q8III2); test: affinity purification with mass spectrometry; tandem affinity purification (IgG agarose beads, TEV protease, anti-protein C beads) of PfMYST::PTP from nuclear extracts of 10^9 asexual blood-stage parasites in PA150 buffer (150 mM KCl, 20 mM Tris-HCl pH 7.7, 3 mM MgCl2, 0.5 mM DTT, 0.1% Tween 20), 4°C; WT 3D7 as control; LC-MS/MS, SAINT probability above 95%, FDR below 1%; three replicates
T1 sequence: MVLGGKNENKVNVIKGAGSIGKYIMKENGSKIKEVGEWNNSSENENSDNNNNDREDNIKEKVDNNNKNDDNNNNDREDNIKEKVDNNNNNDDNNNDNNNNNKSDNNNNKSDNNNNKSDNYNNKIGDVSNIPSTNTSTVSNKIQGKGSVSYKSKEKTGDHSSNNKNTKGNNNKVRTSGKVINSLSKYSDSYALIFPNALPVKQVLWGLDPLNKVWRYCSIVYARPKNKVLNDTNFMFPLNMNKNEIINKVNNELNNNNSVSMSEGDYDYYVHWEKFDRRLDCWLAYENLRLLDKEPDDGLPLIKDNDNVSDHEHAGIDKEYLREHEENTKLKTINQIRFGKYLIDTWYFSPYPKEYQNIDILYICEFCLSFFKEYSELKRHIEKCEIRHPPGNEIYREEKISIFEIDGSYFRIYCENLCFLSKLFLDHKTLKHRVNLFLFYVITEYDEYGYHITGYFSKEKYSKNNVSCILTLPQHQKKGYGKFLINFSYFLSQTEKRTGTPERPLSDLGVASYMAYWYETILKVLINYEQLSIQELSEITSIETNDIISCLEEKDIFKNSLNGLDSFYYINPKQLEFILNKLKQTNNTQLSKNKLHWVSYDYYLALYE

[2] = target: T2, PfEAF2::GFP (endogenous PfEAF2 tagged with GFP) (P. falciparum (endogenous in 3D7 parasites)) (UniProt C6KTC1); test: affinity purification with mass spectrometry; single-step pulldown of PfEAF2::GFP with GFP-trap beads from lysates of 10^9 parasites; LC-MS/MS, same SAINT thresholds; three replicates
T2 sequence: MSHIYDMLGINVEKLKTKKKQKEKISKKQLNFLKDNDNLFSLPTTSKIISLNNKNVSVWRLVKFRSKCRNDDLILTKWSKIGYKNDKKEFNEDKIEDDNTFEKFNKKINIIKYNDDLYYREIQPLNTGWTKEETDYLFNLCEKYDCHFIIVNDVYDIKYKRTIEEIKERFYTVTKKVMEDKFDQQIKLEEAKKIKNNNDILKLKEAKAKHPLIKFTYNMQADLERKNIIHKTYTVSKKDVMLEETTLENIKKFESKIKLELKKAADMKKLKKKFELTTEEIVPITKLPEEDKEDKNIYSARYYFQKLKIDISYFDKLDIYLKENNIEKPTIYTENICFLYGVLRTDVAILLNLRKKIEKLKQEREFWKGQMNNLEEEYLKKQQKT

Substance | binding [1] | binding [2]
E3 ubiquitin ligase (PF3D7_0826100) (from UniProt Q8IB94 1-8591) | binds | –
ISWI (PF3D7_0624600) (from UniProt C6KT82 1-2719) | – | binds
MORC family protein (PF3D7_1468100) (from UniProt Q8IKF6 1-2558) | binds | –
PfADA2 (from UniProt Q8IJP9) | binds | –
PfCHD1, putative homolog of chromodomain-helicase-DNA-binding protein 1 (from UniProt Q8IJG6 1-3328) | binds | binds
PfEAF1 (from UniProt Q8ILR9) | binds | binds
PfPHD1 (from UniProt Q8IJW2 1-3853) | binds | –
PfSWR1 (from UniProt C0H4W3) | – | binds
PfTRA1 (from UniProt Q8IES7 1-9271) | binds | binds
PfYAF9 (from UniProt C0H4S5) | binds | binds
RhopH2 (from UniProt C0H571) | binds | –
actin-like protein ALP2b | – | binds
calmodulin (PF3D7_1434200) (from UniProt P62203 1-149) | binds | –
high mobility group protein B3 (HMGB3) | – | binds
protein with unknown functions (PF3D7_0212100) containing a transcriptional activator LAG-3 family sequence (from UniProt O96201 1-1844) | – | binds
